From PMC5400275
Results are given in words; binding and its absence hold for the method and conditions named. For some of these results: Binding seen in cells or lysates may run through a third protein. Some entries that bind do so weakly or less than the wild type. Where a sequence is shown, tags or fusion partners need not be part of it. Blank lines part the entries; values can stand above or below the binder they belong to.

Tests used:
[1] = biological target: T1, RAN1-N-FLAG (Arabidopsis thaliana) (UniProt Q9S7J8); experiment: co-IP; N. benthamiana leaves agroinfiltrated, 2 days; extract in 50 mM Tris-HCl pH 7.5, 150 mM NaCl, 5 mM MgCl2, 1 mM EDTA, 1% Triton X-100; anti-FLAG agarose beads 2 h at 4 C; blots with anti-FLAG and anti-GFP
T1 sequence: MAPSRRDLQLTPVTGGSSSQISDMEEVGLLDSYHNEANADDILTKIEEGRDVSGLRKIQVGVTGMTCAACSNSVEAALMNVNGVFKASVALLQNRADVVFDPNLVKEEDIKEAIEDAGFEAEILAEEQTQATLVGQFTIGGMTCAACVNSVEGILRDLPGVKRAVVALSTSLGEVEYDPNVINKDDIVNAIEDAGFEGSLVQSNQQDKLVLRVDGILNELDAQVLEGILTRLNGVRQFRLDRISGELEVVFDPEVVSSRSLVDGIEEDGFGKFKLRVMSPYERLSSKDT

[2] = biological target: T2, ATX1 fused to a GAL4 DNA-binding domain (BD) (Arabidopsis thaliana) (UniProt Q94BT9); experiment: two-hybrid; yeast strain AH109; pGBKT7 (ATX1) and pGADT7 (RAN1 N terminal) co-transformed; SD (-Leu/-Trp/-His/-Ade) medium with X-alpha-Gal (50 mg/L), 3 days; growth and blue colour
T2 sequence: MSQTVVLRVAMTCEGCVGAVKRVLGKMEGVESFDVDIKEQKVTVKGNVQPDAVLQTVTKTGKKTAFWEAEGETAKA

[3] = biological target: T3, ATX1-FLAG (Arabidopsis thaliana) (UniProt Q94BT9); experiment: co-IP; N. benthamiana leaves agroinfiltrated, 2 days; extract in 50 mM Tris-HCl pH 7.5, 150 mM NaCl, 5 mM MgCl2, 1 mM EDTA, 1% Triton X-100; anti-FLAG agarose beads 2 h at 4 C; blots with anti-FLAG and anti-GFP
T3 sequence: T2 sequence

[4] = biological target: T4, cLUC-ATX1 (Arabidopsis thaliana) (UniProt Q94BT9); experiment: split reporter; split-luciferase complementation in N. benthamiana leaves (agroinfiltration with P19), 2 days, 1 mM luciferin, CCD imaging; the paper calls it BiFC
T4 sequence: T2 sequence

B3: RAN1-N-GFP (domain or fragment, UniProt Q9S7J8 1-289)
chain: T1 sequence
binding [3]: binds

B4: nLUC-RAN1-N (domain or fragment, UniProt Q9S7J8 1-289)
chain: T1 sequence
binding [4]: binds

Further lines, results first:

binding [1]: binds
B1: ATX1-GFP (protein, UniProt Q94BT9 1-76)
chain: T2 sequence

binding [2]: binds
B2: RAN1-N (289 amino-terminal amino acids of RAN1) ligated to a GAL4 activation domain (AD) (domain or fragment, UniProt Q9S7J8 1-289)
chain: T1 sequence
